According to patent publication CN112830969A:
No constants are given. Whether binding was seen depends on the method and setting. Some binding calls cover weakened binding; strength is not graded here.

The chains behind the UniProt entries cited, without tags or fusion partners. Residues count along the entry.
UniProt Q9NZQ7, residues 19-290: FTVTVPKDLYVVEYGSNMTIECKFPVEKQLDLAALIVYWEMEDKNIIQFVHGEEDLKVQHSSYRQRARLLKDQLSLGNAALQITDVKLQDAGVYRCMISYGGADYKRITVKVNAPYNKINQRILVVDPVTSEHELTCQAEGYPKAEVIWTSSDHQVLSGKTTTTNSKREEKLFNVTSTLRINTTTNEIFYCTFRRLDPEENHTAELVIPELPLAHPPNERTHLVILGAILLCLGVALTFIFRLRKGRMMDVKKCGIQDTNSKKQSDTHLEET

Target: PDL1 (PDL1细胞) (UniProt Q9NZQ7)
Assay: cell ELISA on PDL1 cells

B1: PDL1单抗对照402F1 (antibody, human IgG1, kappa, V domains shown)
VH: EVQLQESGPGLVKPSQTLSLTCTVSGDSFSSGYWNWIRQHPGKGLEYIGYVSYTGSTYYIPSLKSRVTISRDTSKNQFSLKLSSVTAADTAVYYCAGYRDWLHGYFDYWGQGTTVTVSS
VL: DIQMTQSPSSLSASVGDRVTITCKASQNVMDNVAWYQQKPGKAPKRLIYSASYRFSGVPSRFSGSGSGTEFTLTISSLQPEDFATYYCQQYNGYPLTFGQGTKLEIKR
For B1, the binding was “binds”.
